No constants are given. Whether binding was seen depends on the method and setting. In cells and extracts the contact can be indirect. Some entries that bind do so weakly or less than the wild type. For part of these data: Sequences can lack the tags named with a protein.

Sequences of proteins named here, by UniProt entry; tags and fusion partners are left off. A change or cut given only in a name is not applied to a line headed by its entry.
UniProt Q2NKJ3: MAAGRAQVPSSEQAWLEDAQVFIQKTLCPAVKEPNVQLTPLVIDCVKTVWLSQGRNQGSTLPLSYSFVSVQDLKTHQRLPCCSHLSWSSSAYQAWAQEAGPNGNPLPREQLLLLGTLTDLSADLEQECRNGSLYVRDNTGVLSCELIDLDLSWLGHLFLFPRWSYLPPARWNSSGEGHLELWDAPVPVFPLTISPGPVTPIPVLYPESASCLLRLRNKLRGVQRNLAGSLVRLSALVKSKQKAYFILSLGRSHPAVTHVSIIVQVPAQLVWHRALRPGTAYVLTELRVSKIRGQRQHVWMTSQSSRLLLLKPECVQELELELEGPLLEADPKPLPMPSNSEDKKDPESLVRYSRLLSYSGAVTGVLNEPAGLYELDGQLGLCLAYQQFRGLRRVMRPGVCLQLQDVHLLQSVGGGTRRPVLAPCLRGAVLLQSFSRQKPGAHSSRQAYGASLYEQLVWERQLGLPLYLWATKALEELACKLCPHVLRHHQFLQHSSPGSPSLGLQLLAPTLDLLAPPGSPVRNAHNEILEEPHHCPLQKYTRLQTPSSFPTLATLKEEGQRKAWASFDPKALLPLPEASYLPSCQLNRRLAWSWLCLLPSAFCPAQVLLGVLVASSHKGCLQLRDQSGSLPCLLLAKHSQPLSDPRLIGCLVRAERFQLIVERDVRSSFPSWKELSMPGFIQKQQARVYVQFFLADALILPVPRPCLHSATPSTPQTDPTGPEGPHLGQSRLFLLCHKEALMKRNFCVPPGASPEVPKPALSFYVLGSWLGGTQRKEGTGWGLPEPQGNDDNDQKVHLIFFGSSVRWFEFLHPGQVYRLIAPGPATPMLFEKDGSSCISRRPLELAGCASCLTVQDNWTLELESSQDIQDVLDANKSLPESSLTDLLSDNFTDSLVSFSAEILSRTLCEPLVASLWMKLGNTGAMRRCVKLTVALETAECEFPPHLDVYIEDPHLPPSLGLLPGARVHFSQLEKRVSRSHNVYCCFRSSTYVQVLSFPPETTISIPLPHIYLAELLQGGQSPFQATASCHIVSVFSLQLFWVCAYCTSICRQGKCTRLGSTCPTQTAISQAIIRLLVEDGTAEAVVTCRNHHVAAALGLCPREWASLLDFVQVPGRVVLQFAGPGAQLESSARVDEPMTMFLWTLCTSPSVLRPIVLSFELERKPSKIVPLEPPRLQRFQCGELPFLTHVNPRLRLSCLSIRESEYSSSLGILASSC
UniProt Q86WV5: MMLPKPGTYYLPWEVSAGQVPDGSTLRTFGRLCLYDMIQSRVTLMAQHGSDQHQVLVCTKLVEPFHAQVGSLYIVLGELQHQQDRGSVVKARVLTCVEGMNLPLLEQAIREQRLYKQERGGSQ
UniProt Q9UQE7: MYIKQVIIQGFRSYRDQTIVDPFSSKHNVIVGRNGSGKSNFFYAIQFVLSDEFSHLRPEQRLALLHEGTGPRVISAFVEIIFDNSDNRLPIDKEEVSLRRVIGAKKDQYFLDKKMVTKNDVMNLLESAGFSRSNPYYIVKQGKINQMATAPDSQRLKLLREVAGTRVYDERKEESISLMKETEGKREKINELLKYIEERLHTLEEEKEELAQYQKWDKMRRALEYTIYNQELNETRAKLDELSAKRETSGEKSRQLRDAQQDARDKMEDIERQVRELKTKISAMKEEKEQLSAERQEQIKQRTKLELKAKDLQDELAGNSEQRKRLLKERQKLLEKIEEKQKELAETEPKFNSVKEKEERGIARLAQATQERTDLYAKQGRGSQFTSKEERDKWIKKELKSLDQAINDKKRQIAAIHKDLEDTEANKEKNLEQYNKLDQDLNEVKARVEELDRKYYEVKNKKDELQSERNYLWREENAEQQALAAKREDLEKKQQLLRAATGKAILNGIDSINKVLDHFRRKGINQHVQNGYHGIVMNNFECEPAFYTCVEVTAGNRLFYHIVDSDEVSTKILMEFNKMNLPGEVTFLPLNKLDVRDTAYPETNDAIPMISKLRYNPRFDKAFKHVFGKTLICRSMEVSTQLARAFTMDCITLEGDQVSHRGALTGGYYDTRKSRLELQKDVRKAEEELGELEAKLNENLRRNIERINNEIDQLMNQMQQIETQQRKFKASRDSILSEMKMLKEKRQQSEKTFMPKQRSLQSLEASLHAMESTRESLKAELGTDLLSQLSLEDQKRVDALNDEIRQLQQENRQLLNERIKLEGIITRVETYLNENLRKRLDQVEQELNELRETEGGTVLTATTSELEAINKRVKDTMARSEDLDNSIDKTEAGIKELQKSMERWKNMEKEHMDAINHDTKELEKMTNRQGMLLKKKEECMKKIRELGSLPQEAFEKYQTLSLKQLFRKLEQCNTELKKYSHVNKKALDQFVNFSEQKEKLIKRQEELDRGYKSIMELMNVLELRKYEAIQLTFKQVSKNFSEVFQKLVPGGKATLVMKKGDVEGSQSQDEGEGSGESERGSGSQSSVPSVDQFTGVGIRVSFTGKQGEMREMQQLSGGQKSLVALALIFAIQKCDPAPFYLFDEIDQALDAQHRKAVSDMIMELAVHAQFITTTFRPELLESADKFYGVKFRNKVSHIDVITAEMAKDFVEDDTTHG

Experiment [1] concerns the target T1, Flag-tagged STN1, expressed alone (human) (UniProt Q9H668).
T1 sequence: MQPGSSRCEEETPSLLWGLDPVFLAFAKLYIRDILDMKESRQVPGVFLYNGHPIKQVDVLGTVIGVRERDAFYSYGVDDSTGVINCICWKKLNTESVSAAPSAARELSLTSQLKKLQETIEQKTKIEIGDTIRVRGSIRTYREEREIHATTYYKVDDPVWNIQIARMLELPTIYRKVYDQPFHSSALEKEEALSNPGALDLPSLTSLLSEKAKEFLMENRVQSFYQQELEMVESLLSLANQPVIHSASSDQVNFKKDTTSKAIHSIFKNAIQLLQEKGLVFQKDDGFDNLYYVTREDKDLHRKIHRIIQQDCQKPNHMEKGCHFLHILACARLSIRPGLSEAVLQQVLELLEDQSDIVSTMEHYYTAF
Put plainly: co-IP.

Experiment [2] addresses CTC1-STN1-TEN1 (CST) complex, epitope-tagged, co-expressed (human) (UniProt Q2NKJ3+Q9H668+Q86WV5). Put plainly: co-IP.

For the molecule “SMC3, endogenous in HEK 293T (from UniProt Q9UQE7 1-1217)”, the binding entry in experiment [1] and in experiment [2] was “binds” throughout.

B1: SMC1A, endogenous in HEK 293T (protein, UniProt Q14683 1-1233)
chain: MGFLKLIEIENFKSYKGRQIIGPFQRFTAIIGPNGSGKSNLMDAISFVLGEKTSNLRVKTLRDLIHGAPVGKPAANRAFVSMVYSEEGAEDRTFARVIVGGSSEYKINNKVVQLHEYSEELEKLGILIKARNFLVFQGAVESIAMKNPKERTALFEEISRSGELAQEYDKRKKEMVKAEEDTQFNYHRKKNIAAERKEAKQEKEEADRYQRLKDEVVRAQVQLQLFKLYHNEVEIEKLNKELASKNKEIEKDKKRMDKVEDELKEKKKELGKMMREQQQIEKEIKEKDSELNQKRPQYIKAKENTSHKIKKLEAAKKSLQNAQKHYKKRKGDMDELEKEMLSVEKARQEFEERMEEESQSQGRDLTLEENQVKKYHRLKEEASKRAATLAQELEKFNRDQKADQDRLDLEERKKVETEAKIKQKLREIEENQKRIEKLEEYITTSKQSLEEQKKLEGELTEEVEMAKRRIDEINKELNQVMEQLGDARIDRQESSRQQRKAEIMESIKRLYPGSVYGRLIDLCQPTQKKYQIAVTKVLGKNMDAIIVDSEKTGRDCIQYIKEQRGEPETFLPLDYLEVKPTDEKLRELKGAKLVIDVIRYEPPHIKKALQYACGNALVCDNVEDARRIAFGGHQRHKTVALDGTLFQKSGVISGGASDLKAKARRWDEKAVDKLKEKKERLTEELKEQMKAKRKEAELRQVQSQAHGLQMRLKYSQSDLEQTKTRHLALNLQEKSKLESELANFGPRINDIKRIIQSREREMKDLKEKMNQVEDEVFEEFCREIGVRNIREFEEEKVKRQNEIAKKRLEFENQKTRLGIQLDFEKNQLKEDQDKVHMWEQTVKKDENEIEKLKKEEQRHMKIIDETMAQLQDLKNQHLAKKSEVNDKNHEMEEIRKKLGGANKEMTHLQKEVTAIETKLEQKRSDRHNLLQACKMQDIKLPLSKGTMDDISQEEGSSQGEDSVSGSQRISSIYAREALIEIDYGDLCEDLKDAQAEEEIKQEMNTLQQKLNEQQSVLQRIAAPNMKAMEKLESVRDKFQETSDEFEAARKRAKKAKQAFEQIKKERFDRFNACFESVATNIDEIYKALSRNSSAQAFLGPENPEEPYLDGINYNCVAPGKRFRPMDNLSGGEKTVAALALLFAIHSYKPAPFFVLDEIDAALDNTNIGKVANYIKEQSTCNFQAIVISLKEEFYTKAESLIGVYPEQGDCVISKVLTFDLTKYPDANPNPNEQ
With B1, the binding result in experiment [2] is “binds”.

(Values after publication doi:10.1101/2021.04.11.439363.)
